Measured values: PMC5025763
These are yes or no findings as the source states them, for the method shown. For some of these results: Binding seen in cells or lysates may run through a third protein. Some entries that bind do so weakly or less than the wild type. For some of these results: Where a sequence is shown, tags or fusion partners need not be part of it.

By UniProt entry, the sequences of proteins in these tests, tags left out.
UniProt P97303: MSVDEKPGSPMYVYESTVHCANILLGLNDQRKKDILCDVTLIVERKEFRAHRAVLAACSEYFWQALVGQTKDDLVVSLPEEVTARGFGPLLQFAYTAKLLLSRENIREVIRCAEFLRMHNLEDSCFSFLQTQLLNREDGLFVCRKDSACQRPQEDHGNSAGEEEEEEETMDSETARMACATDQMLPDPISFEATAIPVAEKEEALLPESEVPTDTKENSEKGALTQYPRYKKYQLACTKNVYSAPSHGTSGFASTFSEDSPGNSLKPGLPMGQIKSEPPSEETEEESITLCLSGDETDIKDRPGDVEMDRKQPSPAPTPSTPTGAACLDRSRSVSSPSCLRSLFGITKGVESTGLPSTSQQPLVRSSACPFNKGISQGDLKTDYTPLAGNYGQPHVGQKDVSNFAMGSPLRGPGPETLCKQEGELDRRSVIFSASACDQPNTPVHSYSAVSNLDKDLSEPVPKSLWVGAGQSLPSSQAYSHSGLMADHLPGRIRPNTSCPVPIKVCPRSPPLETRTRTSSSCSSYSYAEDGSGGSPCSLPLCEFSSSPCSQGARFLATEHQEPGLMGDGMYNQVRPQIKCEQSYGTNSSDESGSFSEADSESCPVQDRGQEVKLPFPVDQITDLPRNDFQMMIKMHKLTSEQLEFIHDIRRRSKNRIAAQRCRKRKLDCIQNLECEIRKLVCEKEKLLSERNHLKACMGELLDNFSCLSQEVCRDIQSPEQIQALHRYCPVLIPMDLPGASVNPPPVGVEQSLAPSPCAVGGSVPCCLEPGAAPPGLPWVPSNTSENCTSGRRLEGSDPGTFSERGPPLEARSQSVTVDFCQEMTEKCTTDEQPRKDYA

T1: HA-tagged JunD, P15066
T1 chain: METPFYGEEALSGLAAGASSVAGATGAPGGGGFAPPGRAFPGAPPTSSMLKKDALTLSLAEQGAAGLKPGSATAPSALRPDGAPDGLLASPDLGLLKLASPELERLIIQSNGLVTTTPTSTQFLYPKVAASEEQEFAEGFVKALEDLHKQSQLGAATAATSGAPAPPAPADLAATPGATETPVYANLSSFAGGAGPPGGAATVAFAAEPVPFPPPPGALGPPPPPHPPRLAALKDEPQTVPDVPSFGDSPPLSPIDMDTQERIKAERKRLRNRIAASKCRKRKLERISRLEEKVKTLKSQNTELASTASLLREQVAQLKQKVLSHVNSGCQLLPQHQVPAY


Columns and labels:
[1] = target: Flag-tagged Bach2 protein (mouse) (UniProt P97303); experiment: AlphaScreen or HTRF; Flag-tagged Bach2 mixed with biotinylated transcription factors, 26 °C for 1 h; then protein A-conjugated acceptor beads, streptavidin-coated donor beads and anti-Flag M2 antibody, 26 °C for 1 h; proteins from cell-free synthesis; intensities relative to DHFR
[2] = target: T1, HA-tagged JunD, P15066; experiment: oligonucleotide precipitation assay; lysates of transfected 293 T cells incubated with biotinylated oligonucleotides (AP-1 consensus; Th2#3 RHS6, wild type or AP-1 motif mutant); bound proteins immunoblotted; details: remark: other sources report otherwise
[3] = target: Myc-tagged Bach2 (mouse) (UniProt P97303); experiment: as above
[4] = target: HA-tagged Bach2 (mouse) (UniProt P97303); experiment: as above
[5] = target: HA-tagged Bach2 (mouse) (UniProt P97303); experiment: co-IP; mixtures of lysates of 293 T cells transfected to express Myc-tagged or HA-tagged proteins; immunoprecipitation with anti-Myc-Tag or anti-HA-Tag mAb, immunoblot; RIPA buffer for the anti-Myc immunoprecipitation

| Binder | binding [1] | binding [5] | further results |
| --- | --- | --- | --- |
| biotinylated Batf (protein, UniProt O35284 1-125, biotinylated (site not stated)) MPHSSDSSDSSFSRSPPPGKQDSSDDVRKVQRREKNRIAAQKSRQRQTQKADTLHLESEDLEKQNAALRKEIKQLTEELKYFTSVLSSHEPLCSVLASGTPSPPEVVYSAHAFHQPHISSPRFQP | binds | – | – |
| Myc-tagged Batf, O35284 1-125 (protein) MPHSSDSSDSSFSRSPPPGKQDSSDDVRKVQRREKNRIAAQKSRQRQTQKADTLHLESEDLEKQNAALRKEIKQLTEELKYFTSVLSSHEPLCSVLASGTPSPPEVVYSAHAFHQPHISSPRFQP | – | – | binding [2]: binds |
| biotinylated Batf3 (protein, UniProt Q9D275 1-118, biotinylated (site not stated)) MSQGPPAVSVLQRSVDAPGNQPQSPKDDDRKVRRREKNRVAAQRSRKKQTQKADKLHEEHESLEQENSVLRREISKLKEELRHLSEVLKEHEKMCPLLLCPMNFVQLRSDPVASCLPR | binds | – | – |
| Myc-tagged Batf (protein, UniProt O35284 1-125) MPHSSDSSDSSFSRSPPPGKQDSSDDVRKVQRREKNRIAAQKSRQRQTQKADTLHLESEDLEKQNAALRKEIKQLTEELKYFTSVLSSHEPLCSVLASGTPSPPEVVYSAHAFHQPHISSPRFQP | – | binds | binding [3]: binds; binding [4]: binds |
| Myc-tagged Batf3 (protein, UniProt Q9D275 1-118) MSQGPPAVSVLQRSVDAPGNQPQSPKDDDRKVRRREKNRVAAQRSRKKQTQKADKLHEEHESLEQENSVLRREISKLKEELRHLSEVLKEHEKMCPLLLCPMNFVQLRSDPVASCLPR | – | binds | – |
